These are yes or no findings as the source states them, for the method shown. Some results given as binding are weak or reduced against the parent protein; the word gives no strength.
molecular target: cynomolgus monkey IL4Rα-his protein (cynomolgus monkey); experiment: SPR Biacore, mAb captured, cynomolgus IL4Rα-his analyte

| Binder | binding |
| --- | --- |
| Chimeric C2C1A1A1 (antibody, human IgG4 S228P, kappa, V domains shown) VH: EVQLVESGGGLVQPGGSLKLSCAASGFTFSTYGMSWVRQTPDKRLELVATINSNGGSTSYPDSVKGRFTISRDNAKNTLYLQMSSLKSEDTAMFYCARFFRFRNAMDYWGQGTSVTVSS VL: DIQMTQSPASLSASVGETVTITCRTSENIYSYLAWYQQKQGKSPQFLVYNAKTLAEGVPSRFSGSGSGTQFSLNINSLQSEDFGSYYCQHYYGPPTWTFGGGTKLEIKR | binds |
| huC2C1A1A1-V15 (antibody, human IgG4 S228P, kappa, V domains shown) VH: EVQLVESGGGLVQPGGSLRLSCAASGFTFSTYGMSWVRQAPGKGLVWVATINSNGGSTSYPDSVKGRFTISRDNAKNTLYLQMNSLRAEDTAVYYCARFFRFRNAMDYWGQGTLVTVSS VL: DIQMTQSPSSLSASVGDRVTITCRTSENIYSYLAWYQQKPGKAPKFLVYNAKTLAEGVPSRFSGSGSGTDFTLTISSLQPEDFATYYCQHYYGPPTWTFGQGTKVEIKR | binds |
| huC2C1A1A1-V14 (antibody, human IgG4 S228P, kappa, V domains shown) VH: EVQLVESGGGLVQPGGSLRLSCAASGFTFSTYGMSWVRQAPGKGLVWVATINSNGGSTSYPDSVKGRFTISRDNAKNTLYLQMNSLRAEDTAVYYCARFFRFRNAMDYWGQGTLVTVSS VL: DIQMTQSPSSLSASVGQRVTITCRTSENIYSYLAWYQQKQGKPPRFLIYNAKTLAEGVPSRFSGSGSGTEFTLTITSLQAEDFGVYYCQHYYGPPTWTFGPGTKLEIKR | binds |
